Reference: the supplement of paper PMC8728848
The other results are listed elsewhere or left out.

What was measured:
Assay in all cases: glycan array binding signal (z-score within array); higher = stronger binding
Conditions in all cases: glycan notation: IUPAC condensed, linker removed
[1] = molecular target: Neu5Ac(a2-6)GlcNAc(b1-4)GlcNAc
How it was run: (§1)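 The binding signal is a Z-score computed within each array. Data were drawn from 3228 arrays in the Consortium for Functional Glycomics database, restricted to those with a known protein sequence. Scores were averaged over arrays of the same protein sequence at different concentrations or buffers, and over linkers, and negative values can be taken as non-binding.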

[2] = molecular target: Neu5Ac(a2-6)GlcNAc(b1-4)GlcNAc(b1-4)GlcNAc
How it was run: as §1

[3] = molecular target: Neu5Ac(a2-8)Neu5Ac
How it was run: as §1

[4] = molecular target: Neu5Ac(a2-8)Neu5Ac(a2-3)Gal(b1-3)GalNAc(b1-4)[Neu5Ac(a2-3)]Gal(b1-4)Glc
How it was run: as §1

[5] = molecular target: Neu5Ac(a2-8)Neu5Ac(a2-3)Gal(b1-3)GalNAc(b1-4)[Neu5Ac(a2-8)Neu5Ac(a2-3)]Gal(b1-4)Glc
How it was run: as §1

[6] = molecular target: Neu5Ac(a2-8)Neu5Ac(a2-3)Gal(b1-4)Glc
How it was run: as §1

[7] = molecular target: Neu5Ac(a2-8)Neu5Ac(a2-3)Gal(b1-4)GlcNAc
How it was run: as §1

[8] = molecular target: Neu5Ac(a2-8)Neu5Ac(a2-3)[Gal(b1-3)GalNAc(b1-4)]Gal(b1-4)Glc
How it was run: as §1

[9] = molecular target: Neu5Ac(a2-8)Neu5Ac(a2-3)[GalNAc(b1-4)]Gal(b1-4)Glc
How it was run: as §1

[10] = molecular target: Neu5Ac(a2-8)Neu5Ac(a2-8)Neu5Ac
How it was run: as §1

[11] = molecular target: Neu5Ac(a2-8)Neu5Ac(a2-8)Neu5Ac(a2-3)Gal(b1-4)Glc
How it was run: as §1

[12] = molecular target: Neu5Ac(a2-8)Neu5Ac(a2-8)Neu5Ac(a2-3)[Gal(b1-3)GalNAc(b1-4)]Gal(b1-4)Glc
How it was run: as §1

[13] = molecular target: Neu5Ac(a2-8)Neu5Ac(a2-8)Neu5Ac(a2-3)[GalNAc(b1-4)]Gal(b1-4)Glc
How it was run: as §1

[14] = molecular target: Neu5Ac(a2-8)Neu5Ac(a2-8)Neu5Ac(a2-8)Neu5Ac(a2-3)[GalNAc(b1-4)]Gal(b1-4)Glc
How it was run: as §1

[15] = molecular target: Neu5Ac(a2-8)Neu5Gc(a2-3)Gal(b1-4)GlcNAc
How it was run: as §1

[16] = molecular target: Neu5Ac(b2-6)Gal(b1-4)GlcNAc
How it was run: as §1

[17] = molecular target: Neu5Ac(b2-6)GalNAc
How it was run: as §1

[18] = molecular target: Neu5Ac9Ac(a2-3)Gal(b1-3)GlcNAc
How it was run: as §1

[19] = molecular target: Neu5Ac9Ac(a2-3)Gal(b1-4)GlcNAc
How it was run: as §1

[20] = molecular target: Neu5Ac9Ac(a2-6)Gal(b1-4)GlcNAc
How it was run: as §1

[21] = molecular target: Neu5Gc(a2-3)Gal(b1-3)GlcNAc
How it was run: as §1

[22] = molecular target: Neu5Gc(a2-3)Gal(b1-3)[Fuc(a1-4)]GlcNAc
How it was run: as §1

[23] = molecular target: Neu5Gc(a2-3)Gal(b1-4)Glc
How it was run: as §1

[24] = molecular target: Neu5Gc(a2-3)Gal(b1-4)GlcNAc
How it was run: as §1

[25] = molecular target: Neu5Gc(a2-3)Gal(b1-4)GlcNAc(b1-3)Gal(b1-4)GlcNAc(b1-2)Man(a1-3)[Neu5Gc(a2-3)Gal(b1-4)GlcNAc(b1-3)Gal(b1-4)GlcNAc(b1-2)Man(a1-6)]Man(b1-4)GlcNAc(b1-4)GlcNAc
How it was run: as §1

[26] = molecular target: Neu5Gc(a2-3)Gal(b1-4)[Fuc(a1-3)]GlcNAc
How it was run: as §1

[27] = molecular target: Neu5Gc(a2-6)Gal(b1-4)GlcNAc
How it was run: as §1

[28] = molecular target: Neu5Gc(a2-6)GalNAc
How it was run: as §1

[29] = molecular target: Neu5Gc(a2-8)Neu5Ac(a2-3)Gal(b1-4)GlcNAc
How it was run: as §1

[30] = molecular target: Neu5Gc(a2-8)Neu5Gc(a2-3)Gal(b1-4)GlcNAc
How it was run: as §1

[31] = molecular target: Neu5Gc(a2-8)Neu5Gc(a2-3)Gal(b1-4)GlcNAc(b1-3)Gal(b1-4)GlcNAc
How it was run: as §1

[32] = molecular target: Neu5Gc(a2-8)Neu5Gc(a2-6)Gal(b1-4)GlcNAc
How it was run: as §1

[33] = molecular target: Neu5Gc(b2-6)Gal(b1-4)GlcNAc
How it was run: as §1

B1: SP15308B-bot-339-22-339 (Bacteroides ovatus) (protein)
chain: NEWEDEQYEQYVSFKAPIASGSDGVTTIYVRYKDNGKVTYQLPIIVSGSTVNSQDRDIHIAVDKDTLKTLNIERFSLYRPELWYTEMEEDKYEFPETVHIPAGSCVELLNIDFNLQDIDMLEKWVLPLTIVDDGSYAYQSHPRKNYAKALLKVVPFNNYSGSYTASSMKVYTYINGKPDTNARTTDKRTGYVVDNNSIFFYAGLINEDMDKDMRKKYKINVHFKEDGTLDMKQDDPSNEMEFELIGTPTYSSTSVMDATRPYLERRYVQIMFEYDFQDFTYGGSGTEVIPIKYRVAGSMTLLRNINTQIPDEDQQIEW
- glycan array binding signal (z-score) [1]: -0.29
- glycan array binding signal (z-score) [2]: -0.306
- glycan array binding signal (z-score) [3]: -0.04
- glycan array binding signal (z-score) [4]: -0.298
- glycan array binding signal (z-score) [5]: 0.089
- glycan array binding signal (z-score) [6]: 0.028
- glycan array binding signal (z-score) [7]: -0.044
- glycan array binding signal (z-score) [8]: -0.005
- glycan array binding signal (z-score) [9]: 0.181
- glycan array binding signal (z-score) [10]: 0.118
- glycan array binding signal (z-score) [11]: -0.189
- glycan array binding signal (z-score) [12]: -0.175
- glycan array binding signal (z-score) [13]: -0.473
- glycan array binding signal (z-score) [14]: -0.248
- glycan array binding signal (z-score) [15]: -0.498
- glycan array binding signal (z-score) [16]: -0.378
- glycan array binding signal (z-score) [17]: -0.627
- glycan array binding signal (z-score) [18]: -0.339
- glycan array binding signal (z-score) [19]: -0.54
- glycan array binding signal (z-score) [20]: -0.663
- glycan array binding signal (z-score) [21]: -0.652
- glycan array binding signal (z-score) [22]: -0.334
- glycan array binding signal (z-score) [23]: -0.15
- glycan array binding signal (z-score) [24]: 0.215
- glycan array binding signal (z-score) [25]: 0.213
- glycan array binding signal (z-score) [26]: -0.265
- glycan array binding signal (z-score) [27]: -0.205
- glycan array binding signal (z-score) [28]: -0.199
- glycan array binding signal (z-score) [29]: -0.481
- glycan array binding signal (z-score) [30]: -0.454
- glycan array binding signal (z-score) [31]: -0.343
- glycan array binding signal (z-score) [32]: -0.21
- glycan array binding signal (z-score) [33]: 0.247
